Here are results for two molecules from PMC5711802, “Conservation of folding and association within a family of spidroin N-terminal domains” (Scientific Reports, 2017).

In assay [1] the target is T1, N-terminal domain (NTD) of major ampullate spidroin 1 (MaSp1) from Euprosthenops australis (Euprosthenops australis), Q05H60.
T1 chain: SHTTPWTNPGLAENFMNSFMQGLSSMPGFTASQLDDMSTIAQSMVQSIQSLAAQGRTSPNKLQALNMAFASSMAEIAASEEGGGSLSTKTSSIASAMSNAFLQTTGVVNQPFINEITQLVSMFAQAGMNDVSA
Nature of the assay: steady-state tryptophan fluorescence against pH; 10 uM protein; 50 mM MOPS pH 6.4 to 8.2 and 50 mM MES pH 5.2 to 7.2, ionic strength 20 mM (KCl); 298 K; emission at 330 nm and wavelength of maximal emission; both purified. The following applies: remark: other sources report otherwise.

For assay [2], the target named is N-terminal domain (NTD) of major ampullate spidroin 1 (MaSp1) from Euprosthenops australis (Euprosthenops australis) (UniProt Q05H60). The assay is described as follows: condition: only 50 mM phosphate pH 7.0, ionic strength 200 mM (monomer conditions); SEC-MALS; monomer conditions: 50 mM phosphate pH 7.0, ionic strength 200 mM (KCl); 100 uL at 5 mg/mL on Superdex-75 HR10/300, 0.5 ml/min; both purified.

No constants are given. Whether binding was seen depends on the method and setting. Some binding calls cover weakened binding; strength is not graded here.

B1: N-terminal domain (NTD) of major ampullate spidroin 1 (MaSp1) from Euprosthenops australis, Q05H60 24-156 (domain or fragment)
chain: SHTTPWTNPGLAENFMNSFMQGLSSMPGFTASQLDDMSTIAQSMVQSIQSLAAQGRTSPNKLQALNMAFASSMAEIAASEEGGGSLSTKTSSIASAMSNAFLQTTGVVNQPFINEITQLVSMFAQAGMNDVSA
For the molecule B1, the binding result in assay [1] is recorded as “binds”.

B2: N-terminal domain (NTD) of major ampullate spidroin 1 (MaSp1) from Euprosthenops australis (domain or fragment, UniProt Q05H60 24-156)
chain: SHTTPWTNPGLAENFMNSFMQGLSSMPGFTASQLDDMSTIAQSMVQSIQSLAAQGRTSPNKLQALNMAFASSMAEIAASEEGGGSLSTKTSSIASAMSNAFLQTTGVVNQPFINEITQLVSMFAQAGMNDVSA
For the molecule B2, the binding entry in assay [2] is on record as “no binding”.
